No constants are given. Whether binding was seen depends on the method and setting. In cells and extracts the contact can be indirect. Some entries that bind do so weakly or less than the wild type.
Target: GSK-3β (human (endogenous in U87 / LN229 glioma cells)) (UniProt P49841)
Assay: co-IP; Pierce Co-Immunoprecipitation kit; 5 mg total cell protein incubated with 10 μg specific antibodies (Abcam) or IgG overnight at 4 °C; western blotting; IgG as negative control; samples with and without MYH9 overexpression

Chains of the proteins cited; added tags and fusions are not shown.
UniProt P49841: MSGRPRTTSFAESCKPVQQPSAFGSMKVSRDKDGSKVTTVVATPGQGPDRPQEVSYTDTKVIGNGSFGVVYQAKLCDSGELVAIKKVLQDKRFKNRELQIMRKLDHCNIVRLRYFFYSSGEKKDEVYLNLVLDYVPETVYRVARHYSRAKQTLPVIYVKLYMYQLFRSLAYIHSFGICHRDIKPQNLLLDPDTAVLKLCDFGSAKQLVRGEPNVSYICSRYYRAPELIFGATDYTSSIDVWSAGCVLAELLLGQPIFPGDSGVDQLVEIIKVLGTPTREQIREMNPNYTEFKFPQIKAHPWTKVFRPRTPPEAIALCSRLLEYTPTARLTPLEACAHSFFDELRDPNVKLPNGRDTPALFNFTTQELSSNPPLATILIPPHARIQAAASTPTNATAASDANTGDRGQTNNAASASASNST
UniProt P35579: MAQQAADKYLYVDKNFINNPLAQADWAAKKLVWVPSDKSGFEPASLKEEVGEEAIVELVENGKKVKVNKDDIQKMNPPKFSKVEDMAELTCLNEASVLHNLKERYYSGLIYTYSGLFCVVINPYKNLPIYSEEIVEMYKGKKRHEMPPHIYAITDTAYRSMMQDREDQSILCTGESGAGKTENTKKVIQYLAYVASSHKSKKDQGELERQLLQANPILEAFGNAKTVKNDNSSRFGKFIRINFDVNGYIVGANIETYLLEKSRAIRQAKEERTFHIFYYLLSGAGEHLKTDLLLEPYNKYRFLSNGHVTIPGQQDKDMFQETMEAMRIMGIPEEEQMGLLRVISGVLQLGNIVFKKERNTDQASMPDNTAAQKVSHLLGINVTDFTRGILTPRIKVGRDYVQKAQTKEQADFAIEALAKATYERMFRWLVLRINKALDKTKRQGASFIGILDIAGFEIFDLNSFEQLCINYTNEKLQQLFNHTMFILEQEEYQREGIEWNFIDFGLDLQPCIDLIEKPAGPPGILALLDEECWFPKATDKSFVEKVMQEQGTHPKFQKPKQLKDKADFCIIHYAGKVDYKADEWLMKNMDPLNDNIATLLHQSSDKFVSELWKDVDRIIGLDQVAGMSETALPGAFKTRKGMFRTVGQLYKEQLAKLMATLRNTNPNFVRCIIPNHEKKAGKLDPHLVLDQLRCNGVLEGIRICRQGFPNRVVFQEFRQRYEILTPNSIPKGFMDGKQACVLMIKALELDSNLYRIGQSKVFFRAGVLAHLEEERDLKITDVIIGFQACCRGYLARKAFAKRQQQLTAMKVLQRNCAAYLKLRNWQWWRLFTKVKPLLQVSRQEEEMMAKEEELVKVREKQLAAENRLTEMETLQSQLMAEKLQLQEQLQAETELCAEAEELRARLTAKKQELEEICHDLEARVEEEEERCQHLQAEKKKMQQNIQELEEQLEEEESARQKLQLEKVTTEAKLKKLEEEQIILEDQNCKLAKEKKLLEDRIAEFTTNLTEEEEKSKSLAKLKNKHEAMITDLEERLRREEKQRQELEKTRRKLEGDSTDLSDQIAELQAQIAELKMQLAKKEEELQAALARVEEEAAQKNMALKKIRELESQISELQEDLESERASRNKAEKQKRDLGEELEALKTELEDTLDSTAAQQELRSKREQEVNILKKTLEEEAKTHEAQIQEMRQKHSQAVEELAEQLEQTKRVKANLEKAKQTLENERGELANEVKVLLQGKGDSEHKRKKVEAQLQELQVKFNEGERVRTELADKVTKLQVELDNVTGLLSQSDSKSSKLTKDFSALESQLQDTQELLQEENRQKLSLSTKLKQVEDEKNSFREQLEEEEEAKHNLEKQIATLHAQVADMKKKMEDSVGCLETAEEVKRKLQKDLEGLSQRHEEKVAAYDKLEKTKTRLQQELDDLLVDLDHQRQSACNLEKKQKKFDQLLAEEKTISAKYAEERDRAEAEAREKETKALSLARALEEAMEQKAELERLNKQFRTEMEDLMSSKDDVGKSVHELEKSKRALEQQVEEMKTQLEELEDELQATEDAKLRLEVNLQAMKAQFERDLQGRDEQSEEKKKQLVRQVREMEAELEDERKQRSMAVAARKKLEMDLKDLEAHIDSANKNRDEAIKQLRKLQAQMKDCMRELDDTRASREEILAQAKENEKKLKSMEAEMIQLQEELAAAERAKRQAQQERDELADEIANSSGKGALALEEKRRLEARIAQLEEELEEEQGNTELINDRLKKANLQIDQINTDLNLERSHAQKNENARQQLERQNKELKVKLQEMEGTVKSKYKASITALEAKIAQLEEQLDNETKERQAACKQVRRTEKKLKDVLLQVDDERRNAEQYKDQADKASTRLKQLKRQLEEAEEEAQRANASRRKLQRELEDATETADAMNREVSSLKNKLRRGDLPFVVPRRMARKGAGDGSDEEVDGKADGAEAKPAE

With “Myosin heavy chain 9 (MYH9) (from UniProt P35579 1-1960)” the binding was “binds”.
